Measured data: PubChem BioAssay AID686938 (Drosophila RNAi Screening Center, 2013)
Screen: 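Fly genes required for calcium entry once internal stores are emptied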 (primary screen). Cells: Drosophila S2R+ cells. Knock-down reagent: long dsRNA against Drosophila genes, about 0.25 µg dsRNA per well, roughly 10,000 cells. Duration: 5 days of knock-down before the calcium assay. Challenge: thapsigargin (SERCA pump blocker) to empty calcium stores; entry signal taken 4 min after adding it. Read-out: 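Duplicate raw fluo-4 intensities per well from a plate reader, at rest and four minutes after thapsigargin emptied calcium stores; entry-to-rest ratio filled for only some wells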. Reading the numbers: calcium entry signal: higher = stronger calcium signal after store depletion; entry to resting ratio: higher = more calcium entry relative to resting level; resting calcium signal: higher = higher resting calcium signal. Active means: 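Called when the plate z-score of the entry-to-rest ratio, mean of duplicates, falls below −3; wells with low overall dye signal (Fmax z below −2) or more than five off-targets excluded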. Calls: active = strongly reduced calcium entry; inactive = no strong reduction.
The deposit covers about 23,000 reagents; shown is an unselected part of those that have a named target and a result. In the full data, 75 (0.33%) were called active. 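Raw plate signals without normalisation; calls rest on plate z-scores that were not deposited; ratio present for only 364 wells.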 Not given: the dose of the treatment.

gene knocked down | amplicon | calcium entry signal, replicate 1 (fluorescence units) | calcium entry signal, replicate 2 (fluorescence units) | entry to resting ratio | resting calcium signal, replicate 1 (fluorescence units) | resting calcium signal, replicate 2 (fluorescence units) | Call
Uck (Uridine-cytidine kinase) | DRSC13661 | 3.88e7 | 2.99e7 | – | 1.56e7 | 1.64e7 | inactive
Uck (Uridine-cytidine kinase) | DRSC16028 | 2.98e7 | 4.27e7 | – | 1.80e7 | 1.86e7 | inactive
CG30395 | DRSC03896 | 2.06e7 | 3.55e7 | – | 9.22e6 | 1.38e7 | inactive
CG4306 | DRSC10409 | 2.99e7 | 4.80e7 | – | 1.61e7 | 1.81e7 | inactive
sty (sprouty) | DRSC08737 | 2.66e7 | 2.77e7 | – | 1.42e7 | 1.42e7 | inactive
sty (sprouty) | DRSC22994 | 5.66e7 | 3.46e7 | – | 2.46e7 | 1.36e7 | inactive
mld (molting defective) | DRSC13681 | 4.28e7 | 4.82e7 | – | 2.05e7 | 2.47e7 | inactive
mld (molting defective) | DRSC14622 | 4.84e7 | 4.21e7 | – | 2.29e7 | 1.95e7 | inactive
Oseg2 (Outer segment 2) | DRSC08343 | 2.75e7 | 3.05e7 | – | 1.39e7 | 1.38e7 | inactive
dpr3 (defective proboscis extension response 3) | DRSC00395 | 3.23e7 | 3.82e7 | – | 1.58e7 | 1.83e7 | inactive
dpr3 (defective proboscis extension response 3) | DRSC00396 | 3.03e7 | 3.64e7 | – | 1.41e7 | 1.77e7 | inactive
dpr3 (defective proboscis extension response 3) | DRSC21369 | 2.26e7 | 2.80e7 | – | 1.34e7 | 1.57e7 | inactive
Dh31-R (Diuretic hormone 31 Receptor) | DRSC06647 | 2.84e7 | 4.90e7 | – | 1.45e7 | 2.19e7 | inactive
Dh31-R (Diuretic hormone 31 Receptor) | DRSC06669 | 2.84e7 | 4.30e7 | – | 1.37e7 | 1.75e7 | inactive
CG4553 | DRSC15595 | 3.63e7 | 4.64e7 | – | 2.01e7 | 2.17e7 | inactive
Chrac-16 (Chromatin accessibility complex 16kD protein) | DRSC20343 | 3.07e7 | 3.47e7 | – | 1.43e7 | 1.30e7 | inactive
CG12355 | DRSC09381 | 5.13e7 | 3.25e7 | – | 2.57e7 | 1.63e7 | inactive
CG12355 | DRSC09883 | 3.65e7 | 5.67e7 | – | 1.83e7 | 2.25e7 | inactive
Cp16 (Chorion protein 16) | DRSC11119 | 3.17e7 | 4.03e7 | – | 1.52e7 | 1.94e7 | inactive
CG14132 | DRSC10136 | 2.53e7 | 2.90e6 | – | 1.31e7 | 3.37e6 | inactive
CG15096 | DRSC06525 | 4.51e7 | 4.20e7 | – | 2.00e7 | 1.76e7 | inactive
Pal2 (Peptidyl-alpha-hydroxyglycine-alpha-amidating lyase 2) | DRSC04507 | 3.63e7 | 4.53e7 | – | 1.78e7 | 2.01e7 | inactive
unk (unkempt) | DRSC17093 | 3.97e7 | 3.56e7 | – | 1.95e7 | 1.61e7 | inactive
CG8172 | DRSC07089 | 5.97e7 | 3.74e7 | – | 2.39e7 | 1.59e7 | inactive
CG8172 | DRSC22113 | 3.54e7 | 3.61e7 | – | 1.56e7 | 1.91e7 | inactive
CG4390 | DRSC15572 | 2.10e7 | 1.95e7 | – | 1.08e7 | 1.01e7 | inactive
CG31343 | DRSC15887 | 2.94e7 | 2.54e7 | – | 1.48e7 | 1.15e7 | inactive
kermit | DRSC06074 | 3.87e7 | 3.42e7 | – | 1.58e7 | 1.52e7 | inactive
CG7333 | DRSC16229 | 4.16e7 | 4.50e7 | – | 5.71e7 | 2.10e7 | inactive
grh (grainy head) | DRSC05680 | 3.71e7 | 3.61e7 | – | 1.78e7 | 1.91e7 | inactive
grh (grainy head) | DRSC05683 | 4.74e7 | 3.79e7 | – | 2.18e7 | 1.98e7 | inactive
grh (grainy head) | DRSC07624 | 3.15e7 | 3.13e7 | – | 1.41e7 | 1.57e7 | inactive
grh (grainy head) | DRSC07625 | 4.20e7 | 4.02e7 | – | 1.75e7 | 1.91e7 | inactive
Neu2 (Neuroectoderm-expressed 2) | DRSC11819 | 2.23e7 | 3.47e7 | – | 1.05e7 | 1.49e7 | inactive
B-H1 (BarH1) | DRSC19334 | 3.68e7 | 3.04e7 | – | 1.89e7 | 1.56e7 | inactive
B-H1 (BarH1) | DRSC21922 | 3.84e7 | 6.89e7 | – | 1.83e7 | 3.20e7 | inactive
Nep1 (Neprilysin 1) | DRSC18388 | 3.31e7 | 3.05e7 | – | 1.46e7 | 1.38e7 | inactive
Nep1 (Neprilysin 1) | DRSC18389 | 3.49e7 | 4.47e7 | – | 1.77e7 | 2.32e7 | inactive
CG13558 | DRSC04196 | 3.59e7 | 4.48e7 | – | 1.84e7 | 2.04e7 | inactive
MCTS1 (Malignant T cell amplified sequence 1) | DRSC18393 | 3.61e7 | 3.10e7 | – | 1.63e7 | 1.48e7 | inactive
rod (rough deal) | DRSC17047 | 2.00e7 | 3.02e7 | 1.9 | 1.05e7 | 1.36e7 | inactive
CG42703 | DRSC03973 | 3.76e7 | 4.09e7 | – | 1.58e7 | 4.13e7 | inactive
eve (even skipped) | DRSC07614 | 2.80e7 | 2.47e7 | – | 1.32e7 | 1.16e7 | inactive
tko (technical knockout) | DRSC18844 | 4.99e7 | 5.56e7 | 2.4 | 2.12e7 | 1.99e7 | inactive
CG5556 | DRSC00687 | 4.14e7 | 5.59e7 | – | 1.92e7 | 2.25e7 | inactive
CG17118 | DRSC02579 | 2.58e7 | 3.52e7 | – | 1.18e7 | 1.62e7 | inactive
Spt6 | DRSC18836 | 1.10e7 | 1.16e7 | – | 7.16e6 | 7.70e6 | inactive
CG30467 | DRSC07097 | 4.03e7 | 3.67e7 | – | 2.10e7 | 1.66e7 | inactive
upd3 (unpaired 3) | DRSC19636 | 3.88e7 | 3.73e7 | – | 1.99e7 | 1.55e7 | inactive
upd3 (unpaired 3) | DRSC19968 | 3.79e7 | 3.36e7 | – | 2.06e7 | 1.50e7 | inactive
upd3 (unpaired 3) | DRSC22169 | 3.19e7 | 2.94e7 | – | 1.92e7 | 1.44e7 | inactive
sp3 (spermathreecae) | DRSC16354 | 4.24e7 | 3.87e7 | – | 5.38e7 | 1.80e7 | inactive
CG11563 | DRSC14327 | 2.87e7 | 3.97e7 | 1.8 | 1.56e7 | 1.73e7 | inactive
Rcd2 (Reduction in Cnn dots 2) | DRSC11756 | 3.50e7 | 5.72e7 | – | 1.87e7 | 2.71e7 | inactive
rept (reptin) | DRSC11388 | 2.49e7 | 1.89e7 | – | 1.73e7 | 1.15e7 | inactive
CG16852 | DRSC01876 | 4.10e7 | 2.62e7 | – | 1.93e7 | 1.25e7 | inactive
CG15005 | DRSC08459 | 3.85e7 | 3.65e7 | – | 2.07e7 | 1.71e7 | inactive
HHEX (Hematopoietically expressed homeobox) | DRSC16186 | 3.57e7 | 4.29e7 | – | 5.09e7 | 1.72e7 | inactive

Records above whose target name begins with R or r (3):
gene knocked down | amplicon | calcium entry signal, replicate 1 (fluorescence units) | calcium entry signal, replicate 2 (fluorescence units) | entry to resting ratio | resting calcium signal, replicate 1 (fluorescence units) | resting calcium signal, replicate 2 (fluorescence units) | Call
rod (rough deal) | DRSC17047 | 2.00e7 | 3.02e7 | 1.9 | 1.05e7 | 1.36e7 | inactive
Rcd2 (Reduction in Cnn dots 2) | DRSC11756 | 3.50e7 | 5.72e7 | – | 1.87e7 | 2.71e7 | inactive
rept (reptin) | DRSC11388 | 2.49e7 | 1.89e7 | – | 1.73e7 | 1.15e7 | inactive
